Laboratory results published in EP2123670B1.
No constants are given. Whether binding was seen depends on the method and setting. Some results given as binding are weak or reduced against the parent protein; the word gives no strength.

Chains of the proteins cited; added tags and fusions are not shown. Lines headed by an entry give the natural chain unless they say otherwise; changes in a name come on top. Residues count along the entry.
UniProt P00747, residues 97-810: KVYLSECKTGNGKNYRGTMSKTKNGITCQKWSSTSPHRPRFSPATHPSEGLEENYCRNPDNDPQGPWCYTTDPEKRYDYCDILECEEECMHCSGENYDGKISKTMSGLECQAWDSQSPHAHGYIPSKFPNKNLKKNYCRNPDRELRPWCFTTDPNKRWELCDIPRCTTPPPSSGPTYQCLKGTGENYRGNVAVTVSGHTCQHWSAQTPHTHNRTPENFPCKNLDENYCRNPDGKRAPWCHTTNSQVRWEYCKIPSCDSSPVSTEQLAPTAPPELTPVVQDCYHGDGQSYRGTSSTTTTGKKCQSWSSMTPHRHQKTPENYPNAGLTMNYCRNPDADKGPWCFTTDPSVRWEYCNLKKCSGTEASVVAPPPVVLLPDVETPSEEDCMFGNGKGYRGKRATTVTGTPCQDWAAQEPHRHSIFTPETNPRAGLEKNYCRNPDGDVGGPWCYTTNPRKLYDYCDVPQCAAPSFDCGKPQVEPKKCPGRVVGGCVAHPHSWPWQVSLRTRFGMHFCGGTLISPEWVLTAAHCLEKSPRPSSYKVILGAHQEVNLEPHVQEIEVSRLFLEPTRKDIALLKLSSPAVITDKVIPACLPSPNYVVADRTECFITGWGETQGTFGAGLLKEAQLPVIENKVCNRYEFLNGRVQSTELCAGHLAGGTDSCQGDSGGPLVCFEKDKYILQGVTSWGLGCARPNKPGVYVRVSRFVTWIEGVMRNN
UniProt Q9GP15: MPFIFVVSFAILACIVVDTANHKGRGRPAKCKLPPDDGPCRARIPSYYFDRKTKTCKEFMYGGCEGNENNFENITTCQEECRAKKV

Key:
[1] = biological target: plasmin (UniProt P00747); experiment: SPR, GST immobilised (about 1000 RU) as negative control, plasmin injected
[2] = biological target: plasmin (UniProt P00747); experiment: SPR, Ir-CPI immobilised at 1500 RU, factor injected at 100 nM
[3] = biological target: plasmin (UniProt P00747); experiment: SPR, Ir-CPI immobilised

GST protein (from UniProt P08515 1-218) (enzyme)
binding [1]: binds

Ir-CPI (from UniProt Q9GP15 20-86)
binding [2]: binds
binding [3]: binds
